This is an account of results in paper PMC11286965.

Protein sequences, listed by entry. Tags and fused reporters are not part of them.
UniProt Q16186: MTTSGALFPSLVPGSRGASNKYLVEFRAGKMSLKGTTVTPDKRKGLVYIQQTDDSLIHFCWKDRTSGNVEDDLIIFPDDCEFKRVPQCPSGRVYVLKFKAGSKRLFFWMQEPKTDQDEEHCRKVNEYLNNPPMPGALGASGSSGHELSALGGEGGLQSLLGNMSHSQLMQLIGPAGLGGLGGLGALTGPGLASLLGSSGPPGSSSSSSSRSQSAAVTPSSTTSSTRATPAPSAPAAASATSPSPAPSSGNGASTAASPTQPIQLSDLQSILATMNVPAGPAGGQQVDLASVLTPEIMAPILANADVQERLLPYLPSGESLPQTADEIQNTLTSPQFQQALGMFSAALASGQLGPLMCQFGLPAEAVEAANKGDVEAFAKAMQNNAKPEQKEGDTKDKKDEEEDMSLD

The assay deals with T1, SIAH1 (Seven in absentia homolog 1) (human) (UniProt Q8IUQ4).
T1 sequence: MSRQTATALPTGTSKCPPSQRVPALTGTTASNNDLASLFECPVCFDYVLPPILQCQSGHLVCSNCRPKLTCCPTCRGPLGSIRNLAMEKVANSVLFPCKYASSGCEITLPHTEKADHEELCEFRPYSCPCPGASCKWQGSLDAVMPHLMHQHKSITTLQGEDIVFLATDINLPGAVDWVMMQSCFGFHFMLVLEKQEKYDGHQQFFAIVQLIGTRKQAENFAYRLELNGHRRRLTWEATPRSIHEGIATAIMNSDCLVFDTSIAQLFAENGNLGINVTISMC
Nature of the assay: co-IP; HepG2 and Huh7 cells lysed in ice-cold IP buffer (1% Triton X-100, 150 mM NaCl, 20 mM HEPES, 2 mM EDTA, 5 mM MgCl2, pH 7.4); lysates incubated overnight with the indicated antibodies, bound to beads, eluted, western blot; legends: cells treated with MG132 (15 uM) for 8 h. A general note: In western blotting, separated proteins are transferred to a membrane and probed.

No constants are given. Whether binding was seen depends on the method and setting. In cells and extracts the contact can be indirect. Some entries that bind do so weakly or less than the wild type.

Take “ADRM1 (adhesion regulating molecule 1) (from UniProt Q16186 1-407)”: the binding result is reported as “binds”.
